# Source: PubChem BioAssay AID1347423 (Functional Genomics Laboratory (NCATS/FGL), 2020)
# Among all 52,000 sequences or so, about 210 (0.4%) were called active.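 How the source made its calls: active means gene whose silencing raises cell survival under the drug, median off-target-corrected z-score across its silencing RNAs 2 or more; inactive means the rest.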 This is one part of the list.
# Test: Resistance to Poly (ADP-Ribose) Polymerase inhibitor: Gene Identification via Genome-wide siRNA Screen
# Details: mouse BRCA2 R2336H ES cells, olaparib, CellTiter-Glo viability; hits give high values
# Procedure, shortened: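 Genome-wide siRNA screen (3 siRNAs/gene, 20 nM) in mouse ES cells carrying hypomorphic BRCA2 R2336H; olaparib 500 nM added 48 h post-transfection, CellTiter-Glo viability 72 h later. Normalized to plate-median negative control; MAD z-scores, gene median, seed-adjusted.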
row,Sequence,z-score
1,GGAACAGUCAUAUAAAGAATT against Grm8,inactive: 0.0707
2,GGUGCUGGUUUUUAAGAAATT against Hsbp1,inactive: 0.423
3,GGUUACCAUGAGGAGGAUUTT against Spata6,inactive: 0.172
4,GGAAAUCUAUUUCAUUGACTT against Zcchc10,inactive: -1.17
5,GCUUUUUAAGACUUUGUCATT against Mcl1,inactive: -3.11
6,GGGUUUCGCUAGAACCAUUTT against BC023181,inactive: 0.922
7,GGCAACUAUGUAAAACCUUTT against Sorbs1,inactive: 0.653
8,GGAAAAAAAAAUGACUCCUTT against Kcne1,inactive: 0.114
9,GGCUCCUGAUUGUUUACCCTT against Hbb-bh1,inactive: -0.731
10,GGACCAUGUUAGAGCAUGCTT against Traf2,inactive: 1.82
11,GGCAGGUAAUAAACAGACATT against 2410141K09Rik,inactive: -0.539
12,CGGCAACCAAUGCAUACAATT against Tpd52,inactive: 0.505
13,GCUUUGUUGGGAGUGAAAUTT against Olfr728,inactive: -2.11
14,GGGAGAUGUUGUCAGGGUCTT against Rnasel,inactive: 0.99
15,CGAAGAUAUUACUAUUCUGTT against Lama2,inactive: 0.473
16,GCCCUCAGAAGACGACGAUTT against Wbscr5,inactive: 0.96
17,GGAUUCUUUGAUUCAAUGUTT against Tlm,inactive: -0.592
18,GGUCGGGAUUUAAUUUGUATT against E130103I17Rik,inactive: -0.76
19,GGCCAUGAAUAUGGAGUCCTT against BC002216,inactive: 0.453
20,CGAAGUGGUUUUAUGUACUTT against Cdkn2b,inactive: -0.2
21,GGCUGUUGAGAUCCCAGAGTT against Wbscr21,inactive: -0.923
22,GGGUAUUCAUUGAGUGGUCTT against Gnb4,inactive: 4.4e-05
23,GCUGAUGUAAGUAUUCUAGTT against Pdcl,inactive: 0.187
24,GGAAAACAAUUCGUCUGCCTT against Oit1,inactive: -0.45
25,GGGCACAGGCGAACUAUGUTT against Arhgap25,inactive: 0.524
26,GGAUGUGAUCCUCUGUUGCTT against F730014I05Rik,inactive: -0.633
27,GGUACCAAAUUGUUUAACATT against Ndufv1,inactive: 0.81

row,Sequence,z-score
1,GCUGUUGGGAUUGUACCACTT against Dhx9,inactive: 0.183
2,GGUGUAUGGUGGUGGUAGUTT against Perld1,inactive: -1.17
3,GGUCAUAGAACUCUGUAUGTT against Slc4a8,inactive: 0.862
4,GGAAAAAUACUUGAUCUCCTT against Card10,inactive: 2.86
5,GGAAGAACUUGACCCAGAGTT against Pex16,inactive: -2.01
6,CCCACAGUAUAGAAUGUGATT against Aldh1a2,inactive: -0.18
7,GCCUAAAAAGCUUCUUUAGTT against 2810002O09Rik,inactive: 0.714
8,GGCCAUCGUACGUGUUUGATT against 1110049B09Rik,inactive: 0.927
9,CCUUAGGCAUGGUCUGGACTT against Gal3st2,inactive: -1.82
10,GGGCUUACCUAUGUCCCUCTT against Olfr406,inactive: 0.777
11,GGUUAUUCAUGUGGAAAAGTT against BC027556,inactive: 0.529
12,GGAAAUGGAUCCAGAAUAUTT against Smarca1,inactive: -1.37
13,GCGCAUCAACAGAGAGGUUTT against Lama2,inactive: -1.59
14,CCUACAGAAGGUGAAUACUTT against Traf7,inactive: -0.548
15,GGCUGAAUAAAAUAAGUGUTT against Adra1a,inactive: -0.0879
16,GGUGACACAUUGUUUGUUGTT against Hagh,inactive: 0.907
17,GUCACCAGACUUGUGUGGATT against 9530004A22Rik,inactive: 0.314
18,GGAAGUUGACAAAAUAGUGTT against Dlg7,inactive: 0.613
19,CCACUUCUUUGCAUUUAAGTT against Slc28a3,inactive: 0.83
20,GCUGCUCUCCCUUUAUGACTT against Lao1,inactive: 0.112
21,GGAGGAUUAUUACAGAAGGTT against Lhx9,inactive: 1.41
22,GGUCCAUCAGGAAAAUCAATT against Obox6,inactive: 0.891
23,GGUUGGUGAUCAACAUCUCTT against Kcna6,inactive: -1.07
24,GGAAAUCAUUCUCCUUCAUTT against 6720455I24Rik,inactive: 0.687
25,GCCCAACUACCAUAGCCUATT against 2400001E08Rik,inactive: 0.252
26,CCUCGAAUCCAGUGUCAGATT against Fxyd5,inactive: 0.807
27,GGUGUUGUAAGUGAUAAGATT against Serpina5,inactive: 1.45

row,Sequence,z-score
1,CCACAAGUUCCACACUCCATT against Olfr1163,inactive: 0.09
2,GGAAAUGACUACUAUGACCTT against Slc12a4,inactive: 0.93
3,CCUAACGUGCUUCCCACCATT against Arsa,inactive: -0.95
4,GGAAGUUUGUAUCAAUCCATT against Smad5,inactive: 1.46
5,GGUCAACAAGCAUGCAUUUTT against Wars,inactive: -3.29
6,GGAGAUUAUUACUUGAUGGTT against 4930539P14Rik,inactive: 1.57
7,GCGGUACUGUCAGUGCAAUTT against Pscd1,inactive: 0.739
8,GGAGUAUGUGGAAUGUCUATT against Creb3l1,inactive: -0.648
9,GCUGAAGACGUGAUUUCCUTT against 5930403N24Rik,inactive: -0.404
10,CCUGUUAGCUAGAGUAGGATT against C130057D23Rik,inactive: -1.4
11,UGCCUAUUUGGGUAUUAUGTT against H2-M10.3,inactive: 1.12
12,GGUUCAUGGGUUUUAAGUGTT against Sui1-rs1,inactive: 0.721
13,CCUUCAAUAUCAGUUUGGGTT against Olfr10,inactive: 1.07
14,GGUAAUGACAACUAUAGAGTT against Tm4sf6,inactive: 0.637
15,UAUUUUGUUGCUCUCUCAGTT against Olfr97,inactive: 1
16,CCUGUAUGGUCAAAGGAGUTT against Il6ra,inactive: -0.112
17,GGGACAACAUUCAAAGGUCTT against Pwwp1,inactive: -0.508
18,GCCAUACUCUUUCUAAAAUTT against 2310003P10Rik,inactive: 1.29
19,GGCAUAAGAGAAAAGAUUUTT against Avpr1a,inactive: 0.803
20,GGGUUACUUCAACUCAUGCTT against Wdr22,inactive: 0.216
21,GGAAUCUGCCAUUUCAGAUTT against Zbtb5,inactive: 0.611
22,CGUACAAUAGCUAGGCAUUTT against Ankrd22,inactive: -0.687
23,CCGUGAUCCCAUCAUGCAUTT against Ereg,inactive: 0.0976
24,GGCGGAGGAAGAGUUCAACTT against Atp6v1e2,inactive: 0.0029
25,GGACAACACCAGUGACAUCTT against Gzmf,inactive: -1.75
26,GGCUCUUCUACUCCUUUUUTT against Lsm2,inactive: -1.96
27,CGAUAAGAACACCUAUAUUTT against Sf3b1,inactive: -2.47

row,Sequence,z-score
1,GGAAAAUCAAGAUGAGAUATT against Stag2,inactive: 0.0332
2,GGAAAGAGGAAAACUCUCCTT against Pole4,inactive: 0.702
3,CCAUCAAUGUAAUCUUCCATT against Zfp386,inactive: -0.559
4,GGCUUAUGUGAUUUUGAUUTT against Gpr63,inactive: -0.084
5,CCCUUUGUUCAAUGUCCCATT against 6330416L11Rik,inactive: -1.44
6,GAAUAUGUGGCUCUGGGUCTT against G6pc3,inactive: 0.347
7,GGCCUGAAAUCAAACGGGUTT against Smarcd1,inactive: -1.04
8,GCUAUUGGUGCUUCAGUCCTT against AW540478,inactive: -0.0672
9,GGCCAUUUCAAGACUCUCGTT against Cd109,inactive: 1.17
10,GGCACCUCUGCUUUUAAAGTT against Ftsj2,inactive: -0.568
11,GGGAUAAGAUUUUCUUGAUTT against Dock2,inactive: 0.168
12,CGUGGAACUCUCAACCAAGTT against Rbm14,inactive: 0.885
13,CCAUACAAGUAUCCGAACUTT against 1700102P08Rik,inactive: 0.267
14,CCUCAAUAGCUCUACUGAATT against Slc17a3,inactive: -0.535
15,GGAAGAGGAGGAGUACAAGTT against Fnbp1,inactive: 1.36
16,GGCUUUAGUAGACUACUUCTT against Osp94,inactive: -1.08
17,GGAGGUUAAUUCAGAGCUGTT against Nrf1,inactive: -0.838
18,GAUCUAGGACAGCUUAGAUTT against Avpr1b,inactive: 0.247
19,GGUAAUUGUUGUUUUUGGGTT against Ppyr1,inactive: 0.418
20,GGAGCUACAGGCUAUCAGUTT against 9230105K17Rik,inactive: 0.825
21,GGCCUAUAGACCUAAUUGUTT against V1rl1,inactive: 0.18
22,GCGAAUUACAUGAAAACAUTT against Pamci,inactive: 0.733
23,CGACUGGAUACCAAAUUACTT against 2610528A15Rik,inactive: -0.737
24,GCCCAUUGAUCCGGAGUAATT against 0710001B24Rik,inactive: -1.74

# Quoted from above (four entries):
row,Sequence,z-score
14,CCUCAAUAGCUCUACUGAATT against Slc17a3,inactive: -0.535
15,GGAAGAGGAGGAGUACAAGTT against Fnbp1,inactive: 1.36
16,GGCUUUAGUAGACUACUUCTT against Osp94,inactive: -1.08
17,GGAGGUUAAUUCAGAGCUGTT against Nrf1,inactive: -0.838
